For 21 compounds, survivor count and T/C results are on record in PubChem BioAssay AID256 (DTP/NCI, 2004).

The list does not hold the whole screen: it is rich in T/C values a quarter to a half above the control, in often repeated tests (any T/C) and in doses without a T/C. Other doses and runs of a compound stand elsewhere. T/C: endpoint of the treated group in % of that of the vehicle group. Some doses have a count of surviving animals in place of a T/C: the source files T/C as zero there, which appears to mark a toxic dose or a test without result, not a measured value. Some doses without a T/C left all or most animals alive at the check, yet need not have been tolerated: the source hardly ever lists a survival T/C far under the control, and the zero likely stands for such cases as well. Survivors were counted at the toxicity check, usually on the fifth day, unless a day is given; later deaths do not show. Schedule codes are those of the source, taken here to give the interval after Q, in days (D) or hours (H), and the number of doses after X. Some doses were run more than once; the values are given in rising order. For survival time, this PubChem deposit counts one and a half times the control or more as active, and values a quarter to a half above the control carry no call in these data; other NCI protocols may use other cut-offs. Some T/C values are followed by the survivors on the day toxicity was checked, most often the fifth; where none is given, no animal had died by that day. Counts like (3×) count equal records among those shown.

In this assay the test system is CD2F1 mice, L1210 leukemia ip, survival T/C. Nature of the assay: NCI In Vivo Anticancer Drug Screen. Data for tumor model L1210 Leukemia (intraperitoneal) in CD2F1 (CDF1) mice. The note with it: higher T/C = longer survival. In outline:
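Transplantable tumor in mice; compound-treated vs vehicle-treated groups. Read-out = treated/control ratio of the measured endpoint.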

Setting [1] is: T/C endpoint: mean survival time, dose: 100.0 mg/kg/injection, schedule: Q01DX001 (ip), vehicle: saline with Tween-80.
Setting [2] is: T/C endpoint: mean survival time, dose: 200.0 mg/kg/injection, schedule: Q04DX002 (ip), vehicle: saline with Tween-80.
The mark [3] stands for this setting: T/C endpoint: mean survival time, dose: 400.0 mg/kg/injection, schedule: Q01DX009 (ip), vehicle: saline with Tween-80.
[4] abbreviates: T/C endpoint: mean survival time, dose: 200.0 mg/kg/injection, schedule: Q04DX003 (ip), vehicle: saline with Tween-80.
Setting [5] is: T/C endpoint: mean survival time, dose: 400.0 mg/kg/injection, schedule: Q04DX003 (ip), vehicle: saline with Tween-80.
[6] abbreviates: T/C endpoint: mean survival time, dose: 12.5 mg/kg/injection, schedule: Q01DX005 (ip), vehicle: other.
Where [7] appears, read: T/C endpoint: median survival time, dose: 80.0 mg/kg/injection, schedule: Q04DX002 (ip), vehicle: water.

As for `CNC(=O)Oc1cccn(C(=O)NC)c1=O`, the survivor count is recorded as 2 of 6 (T/C endpoint: mean survival time, dose: 100.0 mg/kg/injection, schedule: Q01DX009 (ip), vehicle: saline); 2 of 6 (T/C endpoint: mean survival time, dose: 150.0 mg/kg/injection, schedule: Q01DX009 (ip), vehicle: Klucel (hydroxypropylcellulose) (HPC)); 2 of 6 (T/C endpoint: mean survival time, dose: 150.0 mg/kg/injection, schedule: Q01DX009 (ip), vehicle: saline); 0 of 6 (T/C endpoint: mean survival time, dose: 200.0 mg/kg/injection, schedule: Q01DX009 (ip), vehicle: Klucel (hydroxypropylcellulose) (HPC)); 0 of 6 (T/C endpoint: mean survival time, dose: 200.0 mg/kg/injection, schedule: Q01DX009 (ip), vehicle: saline); 0 of 6 (T/C endpoint: mean survival time, dose: 300.0 mg/kg/injection, schedule: Q01DX009 (ip), vehicle: Klucel (hydroxypropylcellulose) (HPC)). For the setting “T/C endpoint: mean survival time, dose: 300.0 mg/kg/injection, schedule: Q01DX009 (ip), vehicle: saline”, the survivor count is given as 0 of 6.

For `CCC(C)(C)NC1=C(Cl)C(=O)c2ccccc2C1=O`, the survivor count runs as follows: (T/C endpoint: mean survival time, dose: 25.0 mg/kg/injection, schedule: Q01DX001 (ip), vehicle: saline with Tween-80) 2 of 6; (T/C endpoint: mean survival time, dose: 50.0 mg/kg/injection, schedule: Q01DX001 (ip), vehicle: saline with Tween-80) 0 of 6; under setting [1], 0 of 6.

For the compound `CCN(CC)c1ccc(C)cc1Cl`, the survivor count reads like this: (T/C endpoint: mean survival time, dose: 200.0 mg/kg/injection, schedule: Q04DX003 (ip), vehicle: saline sonified) 1 of 6; (T/C endpoint: mean survival time, dose: 400.0 mg/kg/injection, schedule: Q04DX003 (ip), vehicle: saline sonified) 1 of 6.

As to `O=C1C2CCN(CC2)C1CN1CCC2(CC1)C(=O)NCN2c1ccccc1` (centres undefined), the survivor count under setting [2] is 1 of 3.

For `COCC1OC(OC(=O)c2ccccc2)C(OC(=O)c2ccccc2)C(OC(=O)c2ccccc2)C1OC` (centres undefined), under “T/C endpoint: mean survival time, dose: 100.0 mg/kg/injection, schedule: Q01DX009 (ip), vehicle: saline with Tween-80”, the survivor count was 3 of 3.

Take `N#CCSc1nc(N)nc2nc[nH]c12`: the survivor count under setting [3] is given as 1 of 6.

Regarding `CN(C)S(=O)(=O)Oc1cccc([N+](=O)[O-])c1`, the survivor count under setting [4] was 6 of 6 and the survivor count under setting [5] is listed as 1 of 6.

In the case of `Nc1cccc(OCC(O)CN2CCN(c3ccccc3)CC2)c1` (centres undefined), under setting [2], the T/C was 130 % of control [2 of 3 alive]. Further, the survivor count (T/C endpoint: mean survival time, dose: 400.0 mg/kg/injection, schedule: Q04DX002 (ip), vehicle: saline with Tween-80) is 1 of 3.

`O=C(O)c1ccc(NC(=S)NC(=O)c2cccc(Br)c2)cc1`: the survivor count runs as follows: under setting [1], 3 of 3; under setting [3], 5 of 6.

As to `Cc1cn(C2CC3[O][Sn]([c]4ccccc4)([c]4ccccc4)[O]CC3O2)c(=O)[nH]c1=O` (centres undefined), the survivor count is recorded as 6 of 6 (T/C endpoint: mean survival time, dose: 0.75 mg/kg/injection, schedule: Q01DX005 (ip), vehicle: saline); 6 of 6 (T/C endpoint: mean survival time, dose: 6.0 mg/kg/injection, schedule: Q01DX005 (ip), vehicle: other); 3 of 6 under setting [6]; 0 of 6, 1 of 6, 6 of 6 (T/C endpoint: mean survival time, dose: 25.0 mg/kg/injection, schedule: Q01DX005 (ip), vehicle: other); 0 of 6 (T/C endpoint: mean survival time, dose: 50.0 mg/kg/injection, schedule: Q01DX005 (ip), vehicle: other); 0 of 6 (T/C endpoint: mean survival time, dose: 100.0 mg/kg/injection, schedule: Q01DX005 (ip), vehicle: other). Further, for the setting “T/C endpoint: mean survival time, dose: 200.0 mg/kg/injection, schedule: Q01DX005 (ip), vehicle: other”, the survivor count is on record as 0 of 6. In addition, under setting [6], the T/C was 102 [5 of 6 alive], 107, 167 % of control.

Take `O=C(NCCN1CC1)c1ccccc1C(=O)NCCN1CC1`: the T/C under setting [4] was 129 % of control [5 of 6 alive] and the T/C (T/C endpoint: mean survival time, dose: 400.0 mg/kg/injection, schedule: Q01DX001 (ip), vehicle: saline) is 138 % of control [5 of 6 alive].

With `Oc1ccccc1C=NC1CCCCC1N=Cc1ccccc1O.[Cu]` (centres undefined), where the note is “T/C endpoint: mean survival time, dose: 50.0 mg/kg/injection, schedule: Q04DX002 (ip), vehicle: saline with Tween-80”, the survivor count was 3 of 3.

As for `C[N+](C)(C)CCOC(=O)c1ccccc1CBr`, the survivor count (T/C endpoint: mean survival time, dose: 100.0 mg/kg/injection, schedule: Q04DX003 (ip), vehicle: saline) is on record as 0 of 6; the survivor count (T/C endpoint: mean survival time, dose: 200.0 mg/kg/injection, schedule: Q04DX003 (ip), vehicle: saline) was 0 of 6; the survivor count (T/C endpoint: mean survival time, dose: 400.0 mg/kg/injection, schedule: Q04DX003 (ip), vehicle: saline) is on record as 0 of 6.

Regarding `ClCC(Cl)CN(Cc1ccccc1)Cc1ccccc1` (centres undefined), the survivor count under setting [3] is on record as 2 of 6.

With `[O-][n+]1c(Cl)nc(Cl)c(Cl)c1C(Cl)(Cl)Cl`, the survivor count (T/C endpoint: mean survival time, dose: 50.0 mg/kg/injection, schedule: Q04DX003 (ip), vehicle: other) is reported as 2 of 3.

With `Cc1cnccc1Br`, where the note is “T/C endpoint: mean survival time, dose: 400.0 mg/kg/injection, schedule: Q01DX009 (ip), vehicle: water”, the survivor count was 3 of 6.

With `C=CCNC(=O)/C=C/C(=O)NCC=C`, the survivor count reads like this: under setting [4], 3 of 6; under setting [5], 1 of 6.

On to `CC[C@](O)(C(=O)O)c1cc2n(c(=O)c1CO)Cc1cc3ccccc3nc1-2`, for which the T/C runs as follows: (T/C endpoint: mean survival time, dose: 8.0 mg/kg/injection, schedule: Q04DX003 (ip), vehicle: water) 130 % of control; (T/C endpoint: mean survival time, dose: 12.5 mg/kg/injection, schedule: Q04DX003 (ip), vehicle: water) 140 and 149 % of control; (T/C endpoint: mean survival time, dose: 25.0 mg/kg/injection, schedule: Q04DX003 (ip), vehicle: water) 131 % of control; (T/C endpoint: mean survival time, dose: 50.0 mg/kg/injection, schedule: Q04DX003 (ip), vehicle: water) 141 % of control; (T/C endpoint: median survival time, dose: 3.75 mg/kg/injection, schedule: Q04HX004 (iv), vehicle: dextrose) 126 % of control; (T/C endpoint: median survival time, dose: 3.75 mg/kg/injection, schedule: Q04HX004 (iv), vehicle: other) 131 % of control. The T/C (T/C endpoint: median survival time, dose: 3.75 mg/kg/injection, schedule: Q04HX004 (iv), vehicle: water) is 148 % of control; the T/C (T/C endpoint: median survival time, dose: 6.25 mg/kg/injection, schedule: Q04HX004 (iv), vehicle: saline) is 144 % of control; the T/C (T/C endpoint: median survival time, dose: 7.5 mg/kg/injection, schedule: Q04HX004 (iv), vehicle: dextrose) was 149 % of control; the T/C (T/C endpoint: median survival time, dose: 10.0 mg/kg/injection, schedule: Q04DX002 (ip), vehicle: water) is 126, 128 (2×), 133, 134, 137 % of control; the T/C (T/C endpoint: median survival time, dose: 10.0 mg/kg/injection, schedule: Q04DX002 (iv), vehicle: water) was 134 % of control; the T/C (T/C endpoint: median survival time, dose: 12.5 mg/kg/injection, schedule: Q04DX002 (ip), vehicle: water) is 131 and 134 % of control. The T/C reads like this: (T/C endpoint: median survival time, dose: 20.0 mg/kg/injection, schedule: Q04DX002 (ip), vehicle: water) 142, 153, 160, 161, 167, 179 % of control; (T/C endpoint: median survival time, dose: 20.0 mg/kg/injection, schedule: Q04DX002 (iv), vehicle: water) 146 % of control; (T/C endpoint: median survival time, dose: 40.0 mg/kg/injection, schedule: Q04DX002 (ip), vehicle: water) 175, 177, 178, 181, 202, 215 % of control; (T/C endpoint: median survival time, dose: 50.0 mg/kg/injection, schedule: Q04DX003 (ip), vehicle: clinical formulation) 125 % of control; under setting [7], 110, 204, 208, 215, 303 % of control. For the same compound, the survivor count runs as follows: (T/C endpoint: mean survival time, dose: 100.0 mg/kg/injection, schedule: Q04DX003 (ip), vehicle: water) 3 of 6 and 4 of 6; under setting [7], 6 of 6; (T/C endpoint: median survival time, dose: 100.0 mg/kg/injection, schedule: Q04DX003 (ip), vehicle: clinical formulation) 5 of 10.

Consider `C[N+]1(C)CCC2=CC3C=CC2C1C=C3` (centres undefined), for which the survivor count is, setting by setting: (T/C endpoint: median survival time, dose: 100.0 mg/kg/injection, schedule: Q04DX002 (ip), vehicle: saline with Tween-80) 0 of 3; (T/C endpoint: median survival time, dose: 200.0 mg/kg/injection, schedule: Q04DX002 (ip), vehicle: saline with Tween-80) 0 of 3.

Consider `O=S(O)C(=NCc1ccccc1)NCc1ccccc1`, for which the survivor count under setting [3] is 0 of 6.

As for `CC(C)CCCC(C)C1CCC2C3CC(C(=O)O)C(C)(CCC(=O)O)C3CCC12C` (centres undefined), the survivor count (T/C endpoint: mean survival time, dose: 300.0 mg/kg/injection, schedule: Q01DX001 (ip), vehicle: other) is 3 of 6.
